According to patent US20240181006A1, “POLYPEPTIDES BINDING ADAMTS5, MMP13 AND AGGRECAN” (Merck Patent GmbH, priority 2017, published 2024):
No constants are given. Whether binding was seen depends on the method and setting. Some entries that bind do so weakly or less than the wild type.

The chains behind the UniProt entries cited, without tags or fusion partners. Where a name states a change or a piece, a line headed by the entry shows the natural chain unless it says otherwise.
UniProt Q9UNA0: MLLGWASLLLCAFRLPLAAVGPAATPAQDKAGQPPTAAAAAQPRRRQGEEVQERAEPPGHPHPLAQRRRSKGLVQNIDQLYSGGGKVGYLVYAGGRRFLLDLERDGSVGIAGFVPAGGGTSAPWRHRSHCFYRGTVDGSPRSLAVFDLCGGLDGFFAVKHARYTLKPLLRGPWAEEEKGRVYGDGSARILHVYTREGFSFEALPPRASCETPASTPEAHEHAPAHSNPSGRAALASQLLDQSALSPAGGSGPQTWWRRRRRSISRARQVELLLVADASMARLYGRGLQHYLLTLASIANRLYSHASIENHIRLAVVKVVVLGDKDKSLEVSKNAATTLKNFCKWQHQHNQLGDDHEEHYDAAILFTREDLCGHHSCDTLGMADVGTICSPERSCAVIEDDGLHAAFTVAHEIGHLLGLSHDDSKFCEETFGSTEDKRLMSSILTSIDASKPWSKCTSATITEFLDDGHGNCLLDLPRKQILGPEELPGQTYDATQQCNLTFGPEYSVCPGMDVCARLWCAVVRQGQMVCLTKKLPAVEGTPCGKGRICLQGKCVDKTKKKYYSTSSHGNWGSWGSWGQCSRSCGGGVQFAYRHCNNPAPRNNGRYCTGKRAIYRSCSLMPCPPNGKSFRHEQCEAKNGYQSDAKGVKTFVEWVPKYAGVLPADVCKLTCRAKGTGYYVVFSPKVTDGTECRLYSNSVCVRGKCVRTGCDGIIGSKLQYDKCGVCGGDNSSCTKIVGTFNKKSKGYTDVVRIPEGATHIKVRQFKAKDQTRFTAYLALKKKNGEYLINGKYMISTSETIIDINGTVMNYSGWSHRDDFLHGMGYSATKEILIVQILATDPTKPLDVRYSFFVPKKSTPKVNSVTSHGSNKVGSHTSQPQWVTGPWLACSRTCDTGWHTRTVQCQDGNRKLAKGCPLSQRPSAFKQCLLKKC

Assays:
[1] = biological target: human ADAMTS5 (human) (UniProt Q9UNA0); test: screening; binding ELISA on recombinant human ADAMTS5
[2] = biological target: cynomolgus ADAMTS5 (cynomolgus); test: SPR off-rate analysis
[3] = biological target: human ADAMTS5 (human) (UniProt Q9UNA0); test: SPR off-rate analysis

Measured: binding

B1: anti-ADAMTS5 ISVD 02F03 (VHH)
VHH: EVQLVESGGGVVQPGGSLRLSCAASGRTVSSYAMGWFRQAPGKEREFVAGISRSAERTYYVDSLKGRFTISRDNSKNTVYLQMNSLRPEDTALYYCAADLDPNRIFSREEYAYWGQGTLVTVSS
binds: all assays above
